{"source": "patent US20260235593A1", "about": "“FRET BIOSENSOR RECOMBINANT PROTEINS” (The Regents of the University of California, priority 2023, published 2026)", "biological_target": "T1, PKA (Homo sapiens, UniProt P17612)", "T1 construct": "endogenous in cells; host or cells: HEK293T; only the biosensors are transfected", "assay": "Multiplexed biosensor imaging in HEK293T cells: PKA activity (red/far-red HaloTag-AKAR)", "assay_type": "cell-based", "conditions": "HEK293T cells co-expressing yellow/far-red HaloTag-EKAR and red/far-red HaloTag-AKAR; 100 ng/mL hEGF; Fsk and 100 μM IBMX together; M H89", "protocol": "Cell culture and transfection HeLa and HEK293T cells were cultured in Dulbecco's modified Eagle medium (DMEM; Gibco) containing glucose (1 g/L) and supplemented with 10% (v/v) fetal bovine serum (Sigma-Aldrich) and 1% (v/v) penicillin-streptomycin (Pen-Strep; Sigma-Aldrich). NIH3T3 cells were cultured in DMEM (Gibco) containing glucose (1 g/L) and supplemented with 10% (v/v) fetal calf serum and 1% (v/v) Pen-Strep (Sigma-Aldrich). All cells were maintained in a humidified incubator at 37° C. with a 5% CO2 atmosphere. Before transfection, cells were plated onto sterile quartered 35-mm glass-bottomed dishes and grown to 50 to 70% confluence. Cells were then transfected using Lipofectamine 2000 (Invitrogen, HeLa) or PolyJet (SignaGen Laboratories, HEK293T and NIH3T3) and grown an additional 48 hours (HeLa, HEK293T) before imaging. NIH3T3 cells were changed to serum-free DMEM immediately before transfection, medium was changed to complete medium after 6 h. NIH3T3 cells were then serum-starved for 24 hours before imaging. HaloTag labeling was performed 24 h before imaging using synthetic fluorophores (Fluorophore-CA 500 nM, 24 h, 37° C.) in the respective medium. Synthetic fluorophores were kindly provided by Luke Lavis (Janelia Research Campus, JF669-CA, JFX646-CA and JF635) or Kai Johnsson (Max Planck Institute for Medical Research (Germany) and EPFL (Switzerland), NGD-CA). […]", "note": "At least one compound was matched to its structure with a doubt left."}
{"smiles": "C=C[C@@]1(C)CC(=O)[C@]2(O)[C@@]3(C)[C@@H](O)CCC(C)(C)[C@@H]3[C@H](O)[C@H](OC(C)=O)[C@@]2(C)O1", "note": "[Fsk, forskolin]", "values": [{"measurement": "PKA activity", "value": "rapid increase in PKA activity"}]}
